In the experiment the target is human epidermal growth factor receptor type 2 (HER2) (human (endogenous in SKOV-3, SK-BR-3 and PC-3)) (UniProt P04626). Nature of the experiment: radioligand binding; binding specificity test on SKOV-3, SK-BR-3 and PC-3 cells; 1 nM labelled DARPin, 1 h at 37 C; control dishes with 100-fold excess of unlabelled DARPin-G3 added 30 min before; percent of cell-associated activity; only the binder purified.

For one molecule, binding results are on record in article PMC9653920.

No constants are given. Whether binding was seen depends on the method and setting. Some binding calls cover weakened binding; strength is not graded here.

B1: [^99mTc]Tc-(HE)3-G3 (designed binder)
chain: MRGSHEHEHEGSDLGKKLLEAARAGQDDEVRILMANGADVNAKDEYGLTPLYLATAHGHLEIVEVLLKNGADVNAVDAIGFTPLHLAAFIGHLEIAEVLLKHGADVNAQDKFGKTAFDISIGNGNEDLAEILQKLN
modifications: [99mTc]Tc(CO)3 (tricarbonyl technetium) on the N-terminal (HE)3 sequence
B1: the binding entry is on record as “binds”.
